For at least one entry, the source does not settle the construct or the ends of the probe. For some assays here: No signal at the amounts used counts as a negative. Where a protein sequence is shown, tags need not be part of it.

The target in one data set is T1, CcpA (Bacillus licheniformis) (UniProt Q65G28).
T1 sequence (looked up, limits assumed): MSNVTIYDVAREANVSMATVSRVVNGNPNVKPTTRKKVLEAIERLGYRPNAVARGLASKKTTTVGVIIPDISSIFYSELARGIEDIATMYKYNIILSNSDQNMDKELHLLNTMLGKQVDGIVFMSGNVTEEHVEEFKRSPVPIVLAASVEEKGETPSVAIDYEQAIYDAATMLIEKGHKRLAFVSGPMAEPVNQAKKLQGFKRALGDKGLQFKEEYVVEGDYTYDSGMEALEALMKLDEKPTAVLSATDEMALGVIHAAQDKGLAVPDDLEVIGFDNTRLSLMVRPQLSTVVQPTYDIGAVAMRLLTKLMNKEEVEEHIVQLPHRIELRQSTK
The data set is described as follows: EMSA. The settings on record: 1.2, 1.6 uM CcpA; 10 nM biotin probe, 10 mM Tris-HCl pH 7.4, 1 mM DTT, 1 mM EDTA, 50 mM KCl, 1 mM MgCl2, 0.05 ug/uL poly(dI-dC), 25 C, 20 min; 4% acrylamide, 0.5x TBE; recombinant protein; protein details: His-tag; label: biotin. Background: In EMSA bound probe runs differently from free probe, usually more slowly.
With “TCCCCGTCAGATGGCCGGGAGCCGGATGAACCACCATTCCGCGCGGCTTGTTGACGACAAGAACGTCCTGATCTTATTATAATATAAGCAAAAAACTCTTGTCATCCTGCCAAATAAAAAGGAAAAGCATTGACCTGAAAAAAGCTATAGCTTTTATAATACAAAAAGACCGATTAGAGGGGAGAGAGGAAACATGCCTTCAGTTGAAAGTTTTGAACTTGACCATAATGCAGTAAAAGCGCCTTACGTCAGACACTGCGGCGTCCATAAAGTGGGATCCCTCGAGCGG (double strand) [A-4e (MtlR box 4, cre3)]”, the binding result is listed as “binds”. The same measure, in the same setting: with “TCCCCGTCAGATGGCCGGGAGCCGGATGAACCACCATTCCGCGCGGCTTGTTGACGACAAGAACGTCCTGATCTTATTATAATATAAGCAAAAAACTCTTGTCATCCTGCCAAATAAAAAGGAAAAGCATTGACCTGAAAAGCTTTATAAAGCTTATAATACAAAAAGACCGATTAGAGGGGAGAGAGGAAACATGCCTTCAGTTGAAAGTTTTGAACTTGACCATAATGCAGTAAAAGCGCCTTACGTCAGACACTGCGGCGTCCATAAAGTGGGATCCCTCGAGCGG (double strand) [A-4c (MtlR box 4, cre2)]” the entry was “binds”; with “TCCCCGTCAGATGGCCGGGAGCCGGATGAACCACCATTCCGCGCGGCTTGTTGACGACAAGAACGTCCTGATCTTATTATAATATAAGCAAAAAACTCTTGTCATCCTGCCAAATAAAAAGGAAAAGCATTGACCTGAAATGACAGCGCTGTCATATAATACAAAAAGACCGATTAGAGGGGAGAGAGGAAACATGCCTTCAGTTGAAAGTTTTGAACTTGACCATAATGCAGTAAAAGCGCCTTACGTCAGACACTGCGGCGTCCATAAAGTGGGATCCCTCGAGCGG (double strand) [A-4a (MtlR box 4, cre1)]”, “binds”.

As to “TCCCCGTCAGATGGCCGGGAGCCGGATGAACCACCATTCCGCGCGGCTTGTTGACGACAAGAACGTCCTGATCTTATTATAATATAAGCAAAAAACTCTTGTCATCCTGCCAAATAAAAAGGAAAGCTATAGCTTTAAAAGCATTGACCTGAAAACTTATCGGTAAAGTATGATATAATACAAAAAGACCGATTAGAGGGGAGAGAGGAAACATGCCTTCAGTTGAAAGTTTTGAACTTGACCATAATGCAGTAAAAGCGCCTTACGTCAGACACTGCGGCGTCCATAAAGTGGGATCCCTCGAGCGG (double strand) [A-4f (MtlR box 4, cre3)]”, the binding result is listed as “binds”.

For “TCCCCGTCAGATGGCCGGGAGCCGGATGAACCACCATTCCGCGCGGCTTGTTGACGACAAGAACGTCCTGATCTTATTATAATATAAGCAAAAAACTCTTGTCATCCTGCCAAATAAAAAGGAGCTTTATAAAGCTAAAAGCATTGACCTGAAAACTTATCGGTAAAGTATGATATAATACAAAAAGACCGATTAGAGGGGAGAGAGGAAACATGCCTTCAGTTGAAAGTTTTGAACTTGACCATAATGCAGTAAAAGCGCCTTACGTCAGACACTGCGGCGTCCATAAAGTGGGATCCCTCGAGCGG (double strand) [A-4d (MtlR box 4, cre2)]”, the binding result is on record as “binds”. For “TCCCCGTCAGATGGCCGGGAGCCGGATGAACCACCATTCCGCGCGGCTTGTTGACGACAAGAACGTCCTGATCTTATTATAATATAAGCAAAAAACTCTTGTCATCCTGCCAAATAAAAAGGTGACAGCGCTGTCAAAAAGCATTGACCTGAAAACTTATCGGTAAAGTATGATATAATACAAAAAGACCGATTAGAGGGGAGAGAGGAAACATGCCTTCAGTTGAAAGTTTTGAACTTGACCATAATGCAGTAAAAGCGCCTTACGTCAGACACTGCGGCGTCCATAAAGTGGGATCCCTCGAGCGG (double strand) [A-4b (MtlR box 4, cre1)]”, the binding result is “binds”.

For another data set, the target named is T2, MtlR (Bacillus licheniformis) (UniProt Q62YQ4).
T2 sequence (looked up, limits assumed): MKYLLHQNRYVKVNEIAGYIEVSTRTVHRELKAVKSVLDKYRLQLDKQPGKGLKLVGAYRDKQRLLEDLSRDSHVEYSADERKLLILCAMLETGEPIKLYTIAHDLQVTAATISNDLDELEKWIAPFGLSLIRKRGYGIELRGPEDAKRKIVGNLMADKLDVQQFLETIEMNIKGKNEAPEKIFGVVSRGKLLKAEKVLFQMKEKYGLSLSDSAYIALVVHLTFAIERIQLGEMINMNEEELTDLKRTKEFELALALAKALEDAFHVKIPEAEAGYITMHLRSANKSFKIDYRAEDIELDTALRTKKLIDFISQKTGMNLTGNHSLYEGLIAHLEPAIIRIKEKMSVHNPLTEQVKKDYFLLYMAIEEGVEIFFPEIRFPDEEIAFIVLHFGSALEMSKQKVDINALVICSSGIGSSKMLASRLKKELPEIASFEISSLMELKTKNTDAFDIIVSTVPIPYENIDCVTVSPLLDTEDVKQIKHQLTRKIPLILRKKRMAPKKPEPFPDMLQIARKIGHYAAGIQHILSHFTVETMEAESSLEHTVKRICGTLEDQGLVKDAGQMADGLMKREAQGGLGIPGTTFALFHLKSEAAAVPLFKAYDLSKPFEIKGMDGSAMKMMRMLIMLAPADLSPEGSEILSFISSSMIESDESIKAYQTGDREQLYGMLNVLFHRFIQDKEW
Description: EMSA. The note with it: 0.4 uM MtlR; 10 nM biotin probe, 10 mM Tris-HCl pH 7.4, 1 mM DTT, 1 mM EDTA, 50 mM KCl, 1 mM MgCl2, 0.05 ug/uL poly(dI-dC), 25 C, 20 min; 4% acrylamide, 0.5x TBE; recombinant protein; protein details: His-tag; label: biotin.
With “TCCCCGTCAGATGGCCGGGAGCCGGATGAACCACCATTCCGCGCGGCTTGTTGACGACAAGAACGTCCTGATCTTATTATAATATAAGCAAAAAACTCATAAAAAGGAAAAGCATTGACCTGAAAACTTATCGGTAAAGTATGATATAATACAAAAAGACCGATTAGAGGGGAGAGAGGAAACATGCCTTCAGTTGAAAGTTTTGAACTTGACCATAATGCAGTAAAAGCGCCTTACGTCAGACACTGCGGCGTCCATAAAGTGGGATCCCTCGAGCGG (double strand) [Pshutle09]”, the binding result is “no binding”. On the same count and under the same terms, with “TCCCCGTCAGATGGCCGGGAGCCGGATGAACCACCATTCCGCGCGGCTTGTTGACGACAAGAACGTCCTGATCTTATTATAATATAAGCAAAAAACTCTTGTCACACGGCTCCTGCCAAATAAAAAGGAAAAGCATTGACCTGAAAACTTATCGGTAAAGTATGATATAATACAAAAAGACCGATTAGAGGGGAGAGAGGAAACATGCCTTCAGTTGAAAGTTTTGAACTTGACCATAATGCAGTAAAAGCGCCTTACGTCAGACACTGCGGCGTCCATAAAGTGGGATCCCTCGAGCGG (double strand) [Pshutle09A (MtlR box A)]” the entry was “binds”; with “TCCCCGTCAGATGGCCGGGAGCCGGATGAACCACCATTCCGCGCGGCTTGTTGACGACAAGAACGTCCTGATCTTATTATAATATAAGCAAAAAACTCTTGTCACAGTATGTGCCAAATAAAAAGGAAAAGCATTGACCTGAAAACTTATCGGTAAAGTATGATATAATACAAAAAGACCGATTAGAGGGGAGAGAGGAAACATGCCTTCAGTTGAAAGTTTTGAACTTGACCATAATGCAGTAAAAGCGCCTTACGTCAGACACTGCGGCGTCCATAAAGTGGGATCCCTCGAGCGG (double strand) [Pshutle09B (MtlR box B)]”, “binds”.

The same data set, now with this note: 0.5, 1.0 uM MtlR; 10 nM biotin probe, 10 mM Tris-HCl pH 7.4, 1 mM DTT, 1 mM EDTA, 50 mM KCl, 1 mM MgCl2, 0.05 ug/uL poly(dI-dC), 25 C, 20 min; 4% acrylamide, 0.5x TBE; recombinant protein; protein details: His-tag; label: biotin.
Consider “TCCCCGTCAGATGGCCGGGAGCCGGATGAACCACCATTCCGCGCGGCTTGTTGACGACAAGAACGTCCTGATCTTATTATAATATAAGCAAAAAACTCCCCGGGCACGGCTCCTGCCAAATAAAAAGGAAAAGCATTGACCTGAAAACTTATCGGTAAAGTATGATATAATACAAAAAGACCGATTAGAGGGGAGAGAGGAAACATGCCTTCAGTTGAAAGTTTTGAACTTGACCATAATGCAGTAAAAGCGCCTTACGTCAGACACTGCGGCGTCCATAAAGTGGGATCCCTCGAGCGG (double strand) [A-1 (MtlR box 1)]”, for which the binding result is “no binding”. Still for that read-out and setting: with “TCCCCGTCAGATGGCCGGGAGCCGGATGAACCACCATTCCGCGCGGCTTGTTGACGACAAGAACGTCCTGATCTTATTATAATATAAGCAAAAAACTCTTGTCACACGGCTCCCCCGGGATAAAAAGGAAAAGCATTGACCTGAAAACTTATCGGTAAAGTATGATATAATACAAAAAGACCGATTAGAGGGGAGAGAGGAAACATGCCTTCAGTTGAAAGTTTTGAACTTGACCATAATGCAGTAAAAGCGCCTTACGTCAGACACTGCGGCGTCCATAAAGTGGGATCCCTCGAGCGG (double strand) [A-2 (MtlR box 2)]” the entry was “no binding”. The same measure, in the same setting: the value for “TCCCCGTCAGATGGCCGGGAGCCGGATGAACCACCATTCCGCGCGGCTTGTTGACGACAAGAACGTCCTGATCTTATTATAATATAAGCAAAAAACTCTTGTCACACGGCTCCTGCCAAATAAAAAGGAAAAGCATTGACCTGAAAACTTATCGGTAAAGTATGATATAATACAAAAAGACCGATTAGAGGGGAGAGAGGAAACATGCCTTCAGTTGAAAGTTTTGAACTTGACCATAATGCAGTAAAAGCGCCTTACGTCAGACACTGCGGCGTCCATAAAGTGGGATCCCTCGAGCGG (double strand) [A-6 (MtlR box 6)]” was “binds”; that for “TCCCCGTCAGATGGCCGGGAGCCGGATGAACCACCATTCCGCGCGGCTTGTTGACGACAAGAACGTCCTGATCTTATTATAATATAAGCAAAAAACTCTTGTCAGGCTCCTGCCAAATAAAAAGGAAAAGCATTGACCTGAAAACTTATCGGTAAAGTATGATATAATACAAAAAGACCGATTAGAGGGGAGAGAGGAAACATGCCTTCAGTTGAAAGTTTTGAACTTGACCATAATGCAGTAAAAGCGCCTTACGTCAGACACTGCGGCGTCCATAAAGTGGGATCCCTCGAGCGG (double strand) [A-5 (MtlR box 5)]” was “binds”; that for “TCCCCGTCAGATGGCCGGGAGCCGGATGAACCACCATTCCGCGCGGCTTGTTGACGACAAGAACGTCCTGATCTTATTATAATATAAGCAAAAAACTCTTGTCATGCCAAATAAAAAGGAAAAGCATTGACCTGAAAACTTATCGGTAAAGTATGATATAATACAAAAAGACCGATTAGAGGGGAGAGAGGAAACATGCCTTCAGTTGAAAGTTTTGAACTTGACCATAATGCAGTAAAAGCGCCTTACGTCAGACACTGCGGCGTCCATAAAGTGGGATCCCTCGAGCGG (double strand) [A-3 (MtlR box 3)]” was “binds”.

These data come from publication PMC10992428.
